The other results are listed elsewhere or left out. The data scatter; read single values as rough.
Key:
[1] = compound: ClCC(=O)N[C@@H]1CCCc2ccccc12; test: log2 mean competition ratio of IA-DTB cysteine labelling (DMSO/compound) (log2 ratio); higher = stronger cysteine engagement by compound; details: treatment time: 4 h, cell line lysate: HEK293T
Experimental: (§1)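 IA-DTB competitive cysteine chemoproteomics in HEK293T RIPA lysate. Lysates were treated with compound 29 or 30 at 50 or 200 µM for 4 h, then IA-DTB (500 µM, 1 h), trypsin-digested, NeutrAvidin-enriched and analysed by diaPASEF. Competition ratio = intensity DMSO / intensity compound (n=4 treated, n=64 DMSO); binding: mean log2 CR ≥ 1 and p ≤ 0.05 plus QC filters. Target is the cysteine site.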

Sequences of proteins named here, by UniProt entry; tags and fusion partners are left off. A change or cut given only in a name is not applied to a line headed by its entry. Residues count along the entry.
UniProt O43502: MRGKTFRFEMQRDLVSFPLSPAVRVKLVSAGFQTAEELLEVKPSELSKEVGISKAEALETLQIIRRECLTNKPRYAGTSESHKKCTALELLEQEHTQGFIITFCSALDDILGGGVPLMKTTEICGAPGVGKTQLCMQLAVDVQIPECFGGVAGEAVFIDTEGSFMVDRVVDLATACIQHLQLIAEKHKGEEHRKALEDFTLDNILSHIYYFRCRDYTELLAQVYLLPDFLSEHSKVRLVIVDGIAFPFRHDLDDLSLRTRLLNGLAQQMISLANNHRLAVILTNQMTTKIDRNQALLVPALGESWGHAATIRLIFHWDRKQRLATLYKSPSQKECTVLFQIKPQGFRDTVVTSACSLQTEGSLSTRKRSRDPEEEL
UniProt Q9ULC3: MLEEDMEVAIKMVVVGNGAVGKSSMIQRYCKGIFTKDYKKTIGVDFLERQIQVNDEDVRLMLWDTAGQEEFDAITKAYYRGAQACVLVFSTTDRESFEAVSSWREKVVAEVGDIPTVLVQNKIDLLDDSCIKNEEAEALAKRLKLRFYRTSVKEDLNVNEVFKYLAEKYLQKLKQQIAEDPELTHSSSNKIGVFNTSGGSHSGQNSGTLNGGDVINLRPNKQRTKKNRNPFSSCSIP
UniProt Q9Y3T6: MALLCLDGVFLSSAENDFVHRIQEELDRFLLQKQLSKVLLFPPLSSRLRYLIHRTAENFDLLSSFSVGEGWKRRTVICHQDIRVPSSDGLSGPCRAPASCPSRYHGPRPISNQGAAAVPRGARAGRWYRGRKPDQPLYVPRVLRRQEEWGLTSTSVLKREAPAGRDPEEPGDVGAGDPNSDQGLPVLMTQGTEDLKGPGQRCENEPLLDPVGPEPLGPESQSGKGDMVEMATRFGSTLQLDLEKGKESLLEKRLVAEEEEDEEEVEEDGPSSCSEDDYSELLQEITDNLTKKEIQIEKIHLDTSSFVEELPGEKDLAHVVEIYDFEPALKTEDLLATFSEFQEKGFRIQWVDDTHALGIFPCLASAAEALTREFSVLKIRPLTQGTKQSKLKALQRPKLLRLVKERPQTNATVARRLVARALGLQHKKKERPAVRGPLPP
UniProt O75127, 679-700: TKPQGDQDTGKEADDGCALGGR
UniProt Q6WKZ4: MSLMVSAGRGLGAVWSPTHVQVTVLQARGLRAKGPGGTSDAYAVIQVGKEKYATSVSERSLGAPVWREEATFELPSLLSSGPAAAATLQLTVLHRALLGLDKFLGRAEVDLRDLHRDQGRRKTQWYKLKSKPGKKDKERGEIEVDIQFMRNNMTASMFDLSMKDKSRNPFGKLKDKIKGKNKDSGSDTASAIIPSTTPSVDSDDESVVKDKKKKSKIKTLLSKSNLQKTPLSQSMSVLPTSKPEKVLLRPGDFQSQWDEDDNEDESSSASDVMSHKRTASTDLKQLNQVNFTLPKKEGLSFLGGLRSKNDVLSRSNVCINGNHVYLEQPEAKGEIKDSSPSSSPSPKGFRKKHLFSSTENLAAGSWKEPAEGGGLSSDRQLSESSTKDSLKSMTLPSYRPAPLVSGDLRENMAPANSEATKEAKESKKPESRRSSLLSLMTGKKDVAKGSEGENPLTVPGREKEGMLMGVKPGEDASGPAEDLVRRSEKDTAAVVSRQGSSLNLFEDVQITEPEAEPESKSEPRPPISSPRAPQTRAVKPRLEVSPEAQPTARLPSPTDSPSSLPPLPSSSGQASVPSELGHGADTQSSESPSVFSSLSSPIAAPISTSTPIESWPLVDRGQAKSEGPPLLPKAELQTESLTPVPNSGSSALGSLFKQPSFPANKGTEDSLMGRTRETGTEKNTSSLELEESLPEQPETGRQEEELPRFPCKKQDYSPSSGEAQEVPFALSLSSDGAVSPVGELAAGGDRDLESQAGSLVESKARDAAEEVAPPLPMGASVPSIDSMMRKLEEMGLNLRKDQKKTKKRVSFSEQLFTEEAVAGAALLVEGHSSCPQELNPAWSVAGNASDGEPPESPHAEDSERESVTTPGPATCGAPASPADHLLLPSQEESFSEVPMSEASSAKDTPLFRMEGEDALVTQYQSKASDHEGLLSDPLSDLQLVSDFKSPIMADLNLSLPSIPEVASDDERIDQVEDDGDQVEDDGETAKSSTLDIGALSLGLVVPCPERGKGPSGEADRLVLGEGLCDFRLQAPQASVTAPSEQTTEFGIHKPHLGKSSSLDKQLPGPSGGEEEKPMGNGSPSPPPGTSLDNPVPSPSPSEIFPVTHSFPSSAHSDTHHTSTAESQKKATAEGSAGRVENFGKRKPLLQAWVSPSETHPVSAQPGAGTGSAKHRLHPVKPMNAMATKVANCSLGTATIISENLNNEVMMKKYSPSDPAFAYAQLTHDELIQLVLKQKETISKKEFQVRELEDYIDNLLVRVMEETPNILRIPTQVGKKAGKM
UniProt Q14997: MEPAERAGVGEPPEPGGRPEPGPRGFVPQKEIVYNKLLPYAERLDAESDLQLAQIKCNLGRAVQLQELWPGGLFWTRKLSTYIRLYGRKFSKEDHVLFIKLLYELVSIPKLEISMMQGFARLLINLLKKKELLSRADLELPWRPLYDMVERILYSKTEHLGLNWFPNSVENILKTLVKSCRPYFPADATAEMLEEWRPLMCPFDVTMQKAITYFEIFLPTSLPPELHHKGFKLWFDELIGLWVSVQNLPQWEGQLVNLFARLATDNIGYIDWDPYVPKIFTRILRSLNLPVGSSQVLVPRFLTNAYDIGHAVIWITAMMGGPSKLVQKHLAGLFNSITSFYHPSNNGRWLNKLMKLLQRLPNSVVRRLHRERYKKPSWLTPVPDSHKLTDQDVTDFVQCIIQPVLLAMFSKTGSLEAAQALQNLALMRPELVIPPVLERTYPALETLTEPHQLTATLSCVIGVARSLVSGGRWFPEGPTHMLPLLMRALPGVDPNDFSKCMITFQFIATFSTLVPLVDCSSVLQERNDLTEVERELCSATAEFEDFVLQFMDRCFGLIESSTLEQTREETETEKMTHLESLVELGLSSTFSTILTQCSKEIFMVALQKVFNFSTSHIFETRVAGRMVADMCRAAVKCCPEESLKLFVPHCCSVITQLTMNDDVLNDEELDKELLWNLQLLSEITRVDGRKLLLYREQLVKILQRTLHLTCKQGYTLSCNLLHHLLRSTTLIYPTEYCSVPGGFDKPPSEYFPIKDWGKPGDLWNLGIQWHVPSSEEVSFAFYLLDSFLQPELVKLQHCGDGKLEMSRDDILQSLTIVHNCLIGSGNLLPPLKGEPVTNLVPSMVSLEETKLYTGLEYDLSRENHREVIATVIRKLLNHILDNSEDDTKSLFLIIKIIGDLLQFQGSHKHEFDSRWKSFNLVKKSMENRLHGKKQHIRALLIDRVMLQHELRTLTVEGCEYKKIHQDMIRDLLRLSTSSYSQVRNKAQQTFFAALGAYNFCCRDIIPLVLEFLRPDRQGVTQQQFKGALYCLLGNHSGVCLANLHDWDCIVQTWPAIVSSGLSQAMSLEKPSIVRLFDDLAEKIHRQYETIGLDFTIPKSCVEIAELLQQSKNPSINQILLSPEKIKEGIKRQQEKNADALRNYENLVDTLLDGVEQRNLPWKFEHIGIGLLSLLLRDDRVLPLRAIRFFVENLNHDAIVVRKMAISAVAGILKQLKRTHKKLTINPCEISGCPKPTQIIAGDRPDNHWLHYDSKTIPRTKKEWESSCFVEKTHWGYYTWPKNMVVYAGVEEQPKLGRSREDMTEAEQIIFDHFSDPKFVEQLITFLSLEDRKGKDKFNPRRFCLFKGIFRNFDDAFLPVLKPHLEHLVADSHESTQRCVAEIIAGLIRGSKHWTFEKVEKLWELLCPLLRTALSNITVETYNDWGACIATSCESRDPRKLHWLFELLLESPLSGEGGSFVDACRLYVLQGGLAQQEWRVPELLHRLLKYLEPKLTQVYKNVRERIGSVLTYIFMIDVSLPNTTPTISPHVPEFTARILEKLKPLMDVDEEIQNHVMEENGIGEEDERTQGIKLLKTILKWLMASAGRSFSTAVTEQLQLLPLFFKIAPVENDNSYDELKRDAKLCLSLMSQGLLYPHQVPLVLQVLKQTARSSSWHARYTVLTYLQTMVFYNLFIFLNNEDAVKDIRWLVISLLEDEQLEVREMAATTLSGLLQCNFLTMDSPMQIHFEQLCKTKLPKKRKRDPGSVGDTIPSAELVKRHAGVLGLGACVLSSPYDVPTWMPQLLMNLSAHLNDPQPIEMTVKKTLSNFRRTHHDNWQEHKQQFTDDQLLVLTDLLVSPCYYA
UniProt Q15269: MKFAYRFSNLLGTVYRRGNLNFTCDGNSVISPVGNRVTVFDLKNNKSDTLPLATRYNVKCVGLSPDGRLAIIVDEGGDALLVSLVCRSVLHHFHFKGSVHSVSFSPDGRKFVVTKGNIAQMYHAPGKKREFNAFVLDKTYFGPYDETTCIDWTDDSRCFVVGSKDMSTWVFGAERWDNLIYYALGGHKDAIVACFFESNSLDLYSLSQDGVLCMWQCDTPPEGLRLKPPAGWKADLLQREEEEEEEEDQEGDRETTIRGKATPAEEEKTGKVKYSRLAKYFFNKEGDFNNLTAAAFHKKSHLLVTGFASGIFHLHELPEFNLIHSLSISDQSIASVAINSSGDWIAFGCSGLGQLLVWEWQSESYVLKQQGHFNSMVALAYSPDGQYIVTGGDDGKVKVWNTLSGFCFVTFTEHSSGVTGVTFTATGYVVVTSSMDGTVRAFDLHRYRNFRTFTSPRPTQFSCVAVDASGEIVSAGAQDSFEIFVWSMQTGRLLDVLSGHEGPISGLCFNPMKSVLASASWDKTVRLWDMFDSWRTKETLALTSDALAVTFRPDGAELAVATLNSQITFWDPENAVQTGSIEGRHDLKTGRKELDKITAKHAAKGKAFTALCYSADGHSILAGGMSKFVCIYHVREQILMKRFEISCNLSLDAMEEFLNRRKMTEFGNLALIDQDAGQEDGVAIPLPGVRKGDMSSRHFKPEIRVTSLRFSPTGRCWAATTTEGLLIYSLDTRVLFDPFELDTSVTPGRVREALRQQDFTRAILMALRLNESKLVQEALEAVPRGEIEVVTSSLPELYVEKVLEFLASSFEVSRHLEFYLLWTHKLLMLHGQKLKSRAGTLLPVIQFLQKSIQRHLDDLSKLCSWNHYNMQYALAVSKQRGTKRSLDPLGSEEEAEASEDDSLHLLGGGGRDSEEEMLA
UniProt Q9Y3E5: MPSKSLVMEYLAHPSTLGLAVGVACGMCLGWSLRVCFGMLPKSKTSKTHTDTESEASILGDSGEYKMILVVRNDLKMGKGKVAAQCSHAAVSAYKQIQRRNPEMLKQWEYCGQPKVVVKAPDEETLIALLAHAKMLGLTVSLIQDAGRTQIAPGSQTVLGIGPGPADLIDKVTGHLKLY
UniProt Q06323: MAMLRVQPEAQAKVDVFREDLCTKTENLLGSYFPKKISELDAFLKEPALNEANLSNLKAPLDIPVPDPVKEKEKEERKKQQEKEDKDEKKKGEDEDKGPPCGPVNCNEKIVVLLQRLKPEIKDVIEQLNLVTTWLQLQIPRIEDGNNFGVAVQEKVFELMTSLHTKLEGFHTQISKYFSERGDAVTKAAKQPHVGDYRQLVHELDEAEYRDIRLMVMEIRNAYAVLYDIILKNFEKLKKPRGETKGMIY
UniProt Q96QF0: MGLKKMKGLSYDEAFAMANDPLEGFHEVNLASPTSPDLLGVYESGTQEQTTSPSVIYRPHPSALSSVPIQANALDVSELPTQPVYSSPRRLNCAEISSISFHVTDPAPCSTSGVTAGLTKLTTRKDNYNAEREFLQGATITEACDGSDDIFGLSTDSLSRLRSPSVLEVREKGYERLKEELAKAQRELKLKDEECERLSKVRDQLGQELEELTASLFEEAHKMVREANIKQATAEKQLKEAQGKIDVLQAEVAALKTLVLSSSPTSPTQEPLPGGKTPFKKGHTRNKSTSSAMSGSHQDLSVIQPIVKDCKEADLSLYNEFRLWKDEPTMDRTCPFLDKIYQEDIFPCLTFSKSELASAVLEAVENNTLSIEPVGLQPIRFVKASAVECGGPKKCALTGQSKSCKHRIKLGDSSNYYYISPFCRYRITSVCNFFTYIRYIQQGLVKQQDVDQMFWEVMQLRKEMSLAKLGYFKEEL
UniProt Q6PGN9: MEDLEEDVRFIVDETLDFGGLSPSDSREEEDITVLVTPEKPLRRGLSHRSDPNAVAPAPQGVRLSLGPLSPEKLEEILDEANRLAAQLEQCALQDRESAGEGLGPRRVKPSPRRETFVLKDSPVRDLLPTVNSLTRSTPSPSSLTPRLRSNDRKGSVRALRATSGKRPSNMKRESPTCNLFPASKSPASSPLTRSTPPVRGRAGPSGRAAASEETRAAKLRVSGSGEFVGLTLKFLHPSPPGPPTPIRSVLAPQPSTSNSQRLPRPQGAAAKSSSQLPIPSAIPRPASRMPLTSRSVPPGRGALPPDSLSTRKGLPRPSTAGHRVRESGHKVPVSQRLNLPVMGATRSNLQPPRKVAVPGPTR

[2] = compound: ClCC(=O)N[C@H]1CCCc2ccccc12; test: as above; details: treatment time: 4 h, cell line lysate: HEK293T
Experimental: as §1

Target | log2 mean competition ratio ([1]; 50 µM) | log2 mean competition ratio ([1]; 200 µM) | log2 mean competition ratio ([2]; 50 µM) | log2 mean competition ratio ([2]; 200 µM)
PTPN23 C697 (UniProt Q9H3S7) | -0.0703 | 0.0824 | -0.0626 | 0.0516
RAD51C C124 (UniProt O43502) | -0.148 | 0.0774 | -0.14 | 0.0742
RAB23 C130 (UniProt Q9ULC3) | -0.19 | -0.29 | -0.501 | -0.27
R3HCC1 C94 (UniProt Q9Y3T6+R3HCC1) | -0.00928 | 0.227 | -0.104 | 0.264
PTCD1 C695 (UniProt O75127) | -0.156 | -0.043 | -0.182 | -0.0432
PTPN11 C259 | -0.593 | 0.601 | 0.0773 | 0.713
PRR14L C1271 (UniProt Q5THK1) | 0.0303 | 0.0739 | 0.205 | 0.425
RAB11FIP1 C1028 (UniProt Q6WKZ4) | 0.184 | -0.00231 | 0.234 | 0.262
PSME4 C1267 (UniProt Q14997) | 0.0429 | -0.369 | -0.237 | -0.316
PYCR1 C262 | 0.281 | 0.102 | 0.0332 | 0.114
PWP2 C24 (UniProt Q15269) | -0.14 | 0.0541 | 0.267 | -0.0781
PSMG2 C195 (UniProt Q969U7) | -0.286 | -0.165 | -0.321 | -0.171
PTRH2 C111 (UniProt Q9Y3E5) | -0.207 | -0.0334 | 0.32 | 0.0156
PSME1 C22 (UniProt Q06323) | -0.119 | 0.25 | 0.179 | 0.113
RAB3IP C195 (UniProt Q96QF0) | -0.192 | 0.626 | -0.259 | 0.341
PSRC1 C178 (UniProt Q6PGN9) | 0.133 | -0.0118 | 0.263 | 0.0857

2 entries picked at random from those above:
Target | log2 mean competition ratio ([1]; 50 µM) | log2 mean competition ratio ([1]; 200 µM) | log2 mean competition ratio ([2]; 50 µM) | log2 mean competition ratio ([2]; 200 µM)
PSRC1 C178 (UniProt Q6PGN9) | 0.133 | -0.0118 | 0.263 | 0.0857
PTRH2 C111 (UniProt Q9Y3E5) | -0.207 | -0.0334 | 0.32 | 0.0156
